Tested on: NB12 tumor-initiating cells
Assay: IC50 determination, Alamar Blue cell survival/growth assay
Format: cell-based
Details: Homo sapiens, read-out: NB12 IC50 (nM)
Procedure: FIG. 4A-4E, according to one embodiment of the invention, presents the IC50 values that were determined for the 64 selected candidate compounds. […] Tumor-initiating cells and normal cells were treated with 10 serial dilutions of compounds (5 μM to 9 nM). […] (FS90=normal cells; NB12=tumor-initiating cells).
FIG. 6A-6FF, according to one embodiment of the invention, presents IC50 values for 32 selected compounds from the LOPAC and Prestwick collections. Tumor-initiating cells (NB12) and normal cells (FS90) were treated with 10 serial dilutions of compounds ranging from 5 μM to 9 nM. Cell survival/growth was assayed using Alamar Blue and the percentage of control Alamar Blue signal was plotted versus log[compound] nM. IC50 values for NB12 are given above each plot.
FIG. 7A-7FF, according to one embodiment of the invention, represents IC50 values determined for 32 selected compounds from the LOPAC, Prestwick, and Spectrum collections. Tumor-initiating cells (NB12) and normal cells (FS90) were treated with 10 serial dilutions of compounds ranging from 5 μM to 9 nM. Cell survival/growth was assayed using Alamar Blue and the percentage of control Alamar Blue signal was plotted versus log[compound] nM (FS90 in dashed line, NB12 in bolded line). IC50 values for NB12 and FS90 are given beside each plot. […]

COc1cc2c(c(OC)c1OC)-c1ccc(OC)c(=O)cc1[C@@H](NC(C)=O)CC2 [Colchicine]
IC50: 29.3 nM
